Laboratory results as given in patent US20250129370A1, “METHOD FOR REDUCING HEPATIC TRIGLYCERIDES” (ADAERATA, LIMITED PARTNERSHIP, priority 2022, published 2025).
These are yes or no findings as the source states them, for the method shown. Binding seen in cells or lysates may run through a third protein. Some binding calls cover weakened binding; strength is not graded here. Where a sequence is shown, tags or fusion partners need not be part of it.

By UniProt entry, the sequences of proteins in these tests, tags left out. Residues count along the entry.
UniProt P04114, residues 28-4563: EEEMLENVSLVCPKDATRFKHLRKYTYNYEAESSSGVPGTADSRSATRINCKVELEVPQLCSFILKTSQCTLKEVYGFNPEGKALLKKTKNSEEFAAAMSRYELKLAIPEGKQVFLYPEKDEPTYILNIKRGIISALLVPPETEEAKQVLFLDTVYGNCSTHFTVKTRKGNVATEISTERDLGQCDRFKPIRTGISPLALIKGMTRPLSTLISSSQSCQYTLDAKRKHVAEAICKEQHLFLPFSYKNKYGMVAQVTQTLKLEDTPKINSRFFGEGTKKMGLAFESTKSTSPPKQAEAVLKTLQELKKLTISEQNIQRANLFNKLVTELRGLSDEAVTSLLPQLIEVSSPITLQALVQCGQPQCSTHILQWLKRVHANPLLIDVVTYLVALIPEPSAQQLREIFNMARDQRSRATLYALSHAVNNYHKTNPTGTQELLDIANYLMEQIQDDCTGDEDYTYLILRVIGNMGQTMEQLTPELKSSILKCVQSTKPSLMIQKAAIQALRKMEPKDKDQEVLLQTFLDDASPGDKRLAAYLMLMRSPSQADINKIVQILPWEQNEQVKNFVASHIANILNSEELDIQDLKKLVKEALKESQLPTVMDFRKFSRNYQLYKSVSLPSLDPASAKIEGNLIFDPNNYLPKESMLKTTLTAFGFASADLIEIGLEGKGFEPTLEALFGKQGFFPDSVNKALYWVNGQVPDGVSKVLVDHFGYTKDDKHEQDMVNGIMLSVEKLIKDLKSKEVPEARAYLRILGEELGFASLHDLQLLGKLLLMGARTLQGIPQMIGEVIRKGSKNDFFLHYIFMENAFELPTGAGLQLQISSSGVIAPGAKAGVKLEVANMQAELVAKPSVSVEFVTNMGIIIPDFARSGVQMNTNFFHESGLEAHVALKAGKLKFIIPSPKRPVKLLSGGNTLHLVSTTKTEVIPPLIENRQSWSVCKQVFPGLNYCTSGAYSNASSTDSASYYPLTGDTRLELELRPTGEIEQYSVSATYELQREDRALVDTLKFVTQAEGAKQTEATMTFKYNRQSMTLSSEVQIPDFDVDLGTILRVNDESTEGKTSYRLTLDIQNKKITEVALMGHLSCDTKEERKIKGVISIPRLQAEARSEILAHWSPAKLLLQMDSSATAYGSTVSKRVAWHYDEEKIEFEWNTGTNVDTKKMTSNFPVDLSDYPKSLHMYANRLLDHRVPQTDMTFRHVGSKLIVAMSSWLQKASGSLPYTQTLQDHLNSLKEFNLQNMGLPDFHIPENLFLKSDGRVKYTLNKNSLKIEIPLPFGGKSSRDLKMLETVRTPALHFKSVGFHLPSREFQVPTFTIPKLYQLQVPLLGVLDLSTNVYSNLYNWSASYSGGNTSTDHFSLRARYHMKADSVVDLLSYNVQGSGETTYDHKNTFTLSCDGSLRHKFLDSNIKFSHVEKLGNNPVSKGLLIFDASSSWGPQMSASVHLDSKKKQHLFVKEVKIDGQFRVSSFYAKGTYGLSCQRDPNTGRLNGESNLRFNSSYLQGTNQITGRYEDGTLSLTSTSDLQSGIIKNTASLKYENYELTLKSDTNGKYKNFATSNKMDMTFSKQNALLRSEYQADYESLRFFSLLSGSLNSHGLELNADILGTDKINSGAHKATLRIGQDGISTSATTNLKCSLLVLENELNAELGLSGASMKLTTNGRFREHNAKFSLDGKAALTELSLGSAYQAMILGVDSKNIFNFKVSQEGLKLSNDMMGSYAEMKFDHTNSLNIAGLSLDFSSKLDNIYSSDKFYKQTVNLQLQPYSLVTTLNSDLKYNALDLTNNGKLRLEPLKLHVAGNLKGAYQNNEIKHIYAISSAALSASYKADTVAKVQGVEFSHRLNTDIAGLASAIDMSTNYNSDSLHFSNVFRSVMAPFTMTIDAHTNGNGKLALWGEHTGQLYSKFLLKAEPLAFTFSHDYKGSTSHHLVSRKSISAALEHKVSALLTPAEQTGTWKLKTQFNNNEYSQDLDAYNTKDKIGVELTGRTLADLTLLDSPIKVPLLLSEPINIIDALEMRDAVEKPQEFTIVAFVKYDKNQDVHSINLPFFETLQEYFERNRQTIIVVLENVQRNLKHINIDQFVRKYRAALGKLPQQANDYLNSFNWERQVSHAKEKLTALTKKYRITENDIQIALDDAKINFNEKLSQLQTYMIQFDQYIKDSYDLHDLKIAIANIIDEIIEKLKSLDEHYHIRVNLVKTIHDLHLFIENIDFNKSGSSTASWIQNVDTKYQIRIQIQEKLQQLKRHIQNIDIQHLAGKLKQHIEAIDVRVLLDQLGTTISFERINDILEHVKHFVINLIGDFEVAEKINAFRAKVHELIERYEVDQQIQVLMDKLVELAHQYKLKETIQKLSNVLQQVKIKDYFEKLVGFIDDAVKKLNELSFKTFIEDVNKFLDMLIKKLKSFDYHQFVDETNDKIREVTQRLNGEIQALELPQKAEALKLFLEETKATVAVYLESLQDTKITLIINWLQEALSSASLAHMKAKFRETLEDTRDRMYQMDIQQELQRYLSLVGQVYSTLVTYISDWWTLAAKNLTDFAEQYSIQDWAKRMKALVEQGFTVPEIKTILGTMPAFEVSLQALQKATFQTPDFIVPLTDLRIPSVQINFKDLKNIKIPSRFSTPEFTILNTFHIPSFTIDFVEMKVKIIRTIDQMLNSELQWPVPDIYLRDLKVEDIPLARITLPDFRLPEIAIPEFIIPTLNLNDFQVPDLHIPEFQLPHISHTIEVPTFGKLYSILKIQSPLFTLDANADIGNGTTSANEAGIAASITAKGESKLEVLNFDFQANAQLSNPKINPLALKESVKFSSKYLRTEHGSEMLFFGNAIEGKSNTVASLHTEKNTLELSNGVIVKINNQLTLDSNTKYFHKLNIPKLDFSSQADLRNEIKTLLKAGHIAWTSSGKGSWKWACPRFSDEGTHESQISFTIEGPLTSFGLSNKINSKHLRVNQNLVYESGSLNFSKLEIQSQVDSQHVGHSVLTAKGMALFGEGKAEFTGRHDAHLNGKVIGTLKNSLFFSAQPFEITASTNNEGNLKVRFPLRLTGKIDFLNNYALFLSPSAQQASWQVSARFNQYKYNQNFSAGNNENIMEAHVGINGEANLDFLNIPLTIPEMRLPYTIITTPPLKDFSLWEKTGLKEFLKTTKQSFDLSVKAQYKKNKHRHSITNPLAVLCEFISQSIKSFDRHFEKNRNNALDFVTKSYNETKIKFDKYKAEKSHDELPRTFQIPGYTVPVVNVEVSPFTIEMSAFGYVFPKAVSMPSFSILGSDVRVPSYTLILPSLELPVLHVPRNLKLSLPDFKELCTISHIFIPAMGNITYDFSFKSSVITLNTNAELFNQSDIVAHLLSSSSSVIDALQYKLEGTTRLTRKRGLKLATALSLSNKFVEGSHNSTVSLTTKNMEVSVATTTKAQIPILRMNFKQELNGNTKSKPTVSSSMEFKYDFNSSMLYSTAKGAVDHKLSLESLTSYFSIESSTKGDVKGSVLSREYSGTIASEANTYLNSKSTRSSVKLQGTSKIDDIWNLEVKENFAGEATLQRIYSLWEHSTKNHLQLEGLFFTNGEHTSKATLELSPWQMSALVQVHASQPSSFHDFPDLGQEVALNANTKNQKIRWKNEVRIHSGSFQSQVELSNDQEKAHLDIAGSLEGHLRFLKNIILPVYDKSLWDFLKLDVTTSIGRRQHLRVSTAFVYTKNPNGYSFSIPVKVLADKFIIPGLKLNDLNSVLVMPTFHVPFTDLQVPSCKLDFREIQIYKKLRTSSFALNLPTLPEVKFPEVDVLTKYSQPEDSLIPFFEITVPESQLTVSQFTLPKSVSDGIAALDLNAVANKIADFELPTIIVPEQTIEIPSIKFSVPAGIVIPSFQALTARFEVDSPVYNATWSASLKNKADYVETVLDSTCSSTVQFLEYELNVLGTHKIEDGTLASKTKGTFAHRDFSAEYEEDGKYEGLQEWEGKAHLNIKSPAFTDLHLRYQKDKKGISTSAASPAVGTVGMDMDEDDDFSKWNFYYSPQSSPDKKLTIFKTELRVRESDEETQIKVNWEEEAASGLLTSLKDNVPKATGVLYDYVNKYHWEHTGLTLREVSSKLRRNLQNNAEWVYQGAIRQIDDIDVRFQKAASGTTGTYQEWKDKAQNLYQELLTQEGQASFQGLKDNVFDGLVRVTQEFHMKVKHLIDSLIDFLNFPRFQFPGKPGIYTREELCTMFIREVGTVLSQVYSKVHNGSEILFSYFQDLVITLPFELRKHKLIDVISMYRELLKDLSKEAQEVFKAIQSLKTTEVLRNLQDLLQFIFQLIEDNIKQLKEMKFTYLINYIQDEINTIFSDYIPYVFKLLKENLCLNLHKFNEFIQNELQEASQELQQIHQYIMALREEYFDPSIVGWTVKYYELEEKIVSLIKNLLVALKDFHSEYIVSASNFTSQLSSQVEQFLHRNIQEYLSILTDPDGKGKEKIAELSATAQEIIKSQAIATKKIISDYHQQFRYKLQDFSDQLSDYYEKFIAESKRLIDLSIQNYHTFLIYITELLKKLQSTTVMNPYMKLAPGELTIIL

Tests used:
[1] = biological target: T1, endogenous apoB100 of IHH cells (human, UniProt P04114 28-4563); experiment: summary of the co-immunoprecipitation and co-expression experiments of Example 2
T1 construct: Endogenous protein in lysates of human IHH cells; also called apolipoprotein B

[2] = biological target: T1, endogenous apoB100 of IHH cells; experiment: co-immunoprecipitation with a human ApoB antibody, Western blot for the V5 tag (legend of FIG. 7I)
[3] = biological target: T1, endogenous apoB100 of IHH cells; experiment: co-immunoprecipitation: IHH cell lysates immunoprecipitated with mAb-V5, Western blot with an apoB100 antibody (FIG. 7H)
[4] = biological target: T1, endogenous apoB100 of IHH cells; experiment: co-immunoprecipitation: IHH cell lysates immunoprecipitated with a human ApoB antibody, Western blot for the V5 tag (FIG. 7I)

Measured: binding

B1: human PC7 tagged with V5 at the C-terminus (enzyme, not shown: small tags and cut ends)
chain: SVHFNDPKYPQQWHLNNRRSPGRDINVTGVWERNVTGRGVTVVVVDDGVEHTIQDIAPNYSPEGSYDLNSNDPDPMPHPDVENGNHHGTRCAGEIAAVPNNSFCAVGVAYGSRIAGIRVLDGPLTDSMEAVAFNKHYQINDIYSCSWGPDDDGKTVDGPHQLGKAALQHGVIAGRQGFGSIFVVASGNGGQHNDNCNYDGYANSIYTVTIGAVDEEGRMPFYAEECASMLAVTFSGGDKMLRSIVTTDWDLQKGTGCTEGHTGTSAAAPLAAGMIALMLQVRPCLTWRDVQHIIVFTATRYEDRRAEWVTNEAGFSHSHQHGFGLLNAWRLVNAAKIWTSVPYLASYVSPVLKENKAIPQSPRSLEVLWNVSRMDLEMSGLKTLEHVAVTVSITHPRRGSLELKLFCPSGMMSLIGAPRSMDSDPNGFNDWTFSTVRCWGERARGTYRLVIRDVGDESFQVGILRQWQLTLYGSVWSAVDIRDRQRLLESAMSGKYLHDDFALPCPPGLKIPEEDGYTITPNTLKTLVLVGCFTVFWTVYYMLEVYLSQRNVASNQVCRSGPCHWPHRSRKAKEEGTELESVPLCSSKDPDEVETESRGPPTTSDLLAPDLLEQGDWSLSQNKSALDCPHQHLDVPHGKEEQIC
binds: all assays above
